{
  "source": "paper PMC9927457",
  "about": "(Microbiology Spectrum, 2023)",
  "assay": "Caco-2 permeability",
  "conditions": "human",
  "experimental": "Permeability was measured across Caco-2 cells cultured in a Millipore 96-well Caco-2 plate. For apical to basolateral (A→B) permeability, 10 μM compound was added to the apical (A) side and amount of permeation was determined on the basolateral (B) side; for basolateral to apical (B→A) permeability, the compound was added to the B side and the amount of permeation was determine on the A side. Time points were taken at 2 h.\nTable S2. Permeability. Permeability was measured using Caco-2 cells after 1 and 2 hours incubation with compound. (A→B) is Apical to Basolateral; (B→A) is Basolateral to Apical. Data is expressed as permeability (10-6 cm s-1). dQ/dt is rate of permeation, C0 is initial concentration […]\nArticle Duration direction value replicate replicate mean recovery",
  "data": [
    {"compound": "CC(C)NCC(O)COc1ccc(CC(N)=O)cc1", "note": "(stereo not shown) [Atenolol, atenolol, reference compound]", "values": [
      {"measurement": "Papp B→A at 2 h, 10 µM", "value": 0.3, "unit": "×10⁻⁶ cm/s"}
    ]}
  ]
}
